{"sequences": {"note": "The chains behind the UniProt entries cited, without tags or fusion partners. Residues count along the entry.", "UniProt Q9LU44, 1-562": "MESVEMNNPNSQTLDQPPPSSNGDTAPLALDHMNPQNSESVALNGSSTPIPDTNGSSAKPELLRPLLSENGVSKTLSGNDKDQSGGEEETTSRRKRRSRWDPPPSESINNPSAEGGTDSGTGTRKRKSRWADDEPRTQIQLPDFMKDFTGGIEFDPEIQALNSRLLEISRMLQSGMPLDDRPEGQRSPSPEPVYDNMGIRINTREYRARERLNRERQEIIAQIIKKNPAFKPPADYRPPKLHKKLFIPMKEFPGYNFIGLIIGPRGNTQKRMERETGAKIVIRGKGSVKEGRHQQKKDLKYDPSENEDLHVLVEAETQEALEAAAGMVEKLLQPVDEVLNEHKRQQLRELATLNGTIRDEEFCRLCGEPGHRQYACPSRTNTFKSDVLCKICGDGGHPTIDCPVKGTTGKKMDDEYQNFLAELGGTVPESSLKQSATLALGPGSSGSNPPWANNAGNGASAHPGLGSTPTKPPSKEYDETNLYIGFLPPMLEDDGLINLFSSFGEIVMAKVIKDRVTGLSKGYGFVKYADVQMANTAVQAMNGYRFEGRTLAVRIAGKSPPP"}, "source": "paper PMC7735993", "target": "His-AtSF1(1-562) (Arabidopsis thaliana) (UniProt Q9LU44)", "assay": "EMSA", "conditions": "positive control; LightShift Chemiluminescent RNA EMSA kit, 23 C, 30 min, 8% native PAGE; salt and pH not stated; recombinant protein; residues 1-562; protein details: His; label: 3' biotin", "note": "Construct, isoform or probe ends are uncertain for at least one entry. At least one verdict was read from the data and is not stated in words by the source.", "data": [{"sequence": "UAUACUAACAAUUUUUUUUU [human BPS-Py 20-mer]", "values": [{"measurement": "binding result", "value": "binds"}]}]}
